Reference: article PMC10446823
Results are given in words; binding and its absence hold for the method and conditions named. In cells and extracts the contact can be indirect. Some results given as binding are weak or reduced against the parent protein; the word gives no strength. Sequences can lack the tags named with a protein. Blank lines part the entries; values can stand above or below the molecule they belong to.

Chains of the proteins cited; added tags and fusions are not shown.
UniProt P22626: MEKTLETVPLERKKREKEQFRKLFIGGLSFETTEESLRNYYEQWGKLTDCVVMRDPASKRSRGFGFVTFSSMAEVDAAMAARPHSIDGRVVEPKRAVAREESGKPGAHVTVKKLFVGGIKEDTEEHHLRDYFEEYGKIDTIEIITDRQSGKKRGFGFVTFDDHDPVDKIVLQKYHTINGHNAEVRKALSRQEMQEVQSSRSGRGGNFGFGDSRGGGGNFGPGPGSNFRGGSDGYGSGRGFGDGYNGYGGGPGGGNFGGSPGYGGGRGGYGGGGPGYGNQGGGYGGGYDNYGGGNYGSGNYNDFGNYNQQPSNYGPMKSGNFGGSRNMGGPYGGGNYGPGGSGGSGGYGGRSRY
UniProt P25963: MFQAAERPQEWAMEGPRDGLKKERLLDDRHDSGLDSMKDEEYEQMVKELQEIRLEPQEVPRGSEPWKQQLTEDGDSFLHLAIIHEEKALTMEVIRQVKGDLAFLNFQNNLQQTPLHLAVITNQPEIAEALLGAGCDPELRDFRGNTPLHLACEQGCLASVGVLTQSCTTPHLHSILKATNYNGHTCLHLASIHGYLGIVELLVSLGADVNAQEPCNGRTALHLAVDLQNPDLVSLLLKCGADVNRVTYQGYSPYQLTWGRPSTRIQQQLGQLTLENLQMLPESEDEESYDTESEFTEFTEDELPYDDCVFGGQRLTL

Molecular target: hnRNPA2B1 (overexpressed in HEK293 for the co-immunoprecipitation with IκB-flag) (human) (UniProt P22626)
Experiment: co-IP; HEK293 transfected with hnRNPA2B1 and IκB-flag; protein A/G-Sepharose beads charged with anti-hnRNPA2B1 antibody or mouse normal serum

binding: binds
Molecule: IκBα-flag (from UniProt P25963 1-317)

binding: binds
B1: IκBε-flag (protein, UniProt O00221 1-500)
chain: MNQRRSESRPGNHRLQAYAEPGKGDSGGAGPLSGSARRGRGGGGAIRVRRPCWSGGAGRGGGPAWAVRLPTVTAGWTWPALRTLSSLRAGPSEPHSPGRRPPRAGRPLCQADPQPGKAARRSLEPDPAQTGPRPARAAGMSEARKGPDEAEESQYDSGIESLRSLRSLPESTSAPASGPSDGSPQPCTHPPGPVKEPQEKEDADGERADSTYGSSSLTYTLSLLGGPEAEDPAPRLPLPHVGALSPQQLEALTYISEDGDTLVHLAVIHEAPAVLLCCLALLPQEVLDIQNNLYQTALHLAVHLDQPGAVRALVLKGASRALQDRHGDTALHVACQRQHLACARCLLEGRPEPGRGTSHSLDLQLQNWQGLACLHIATLQKNQPLMELLLRNGADIDVQEGTSGKTALHLAVETQERGLVQFLLQAGAQVDARMLNGCTPLHLAAGRGLMGISSTLCKAGADSLLRNVEDETPQDLTEESLVLLPFDDLKISGKLLLCTD
